The values that follow come from publication PMC9513055.

Sequences of proteins named here, by UniProt entry; tags and fusion partners are left off.
UniProt P54578: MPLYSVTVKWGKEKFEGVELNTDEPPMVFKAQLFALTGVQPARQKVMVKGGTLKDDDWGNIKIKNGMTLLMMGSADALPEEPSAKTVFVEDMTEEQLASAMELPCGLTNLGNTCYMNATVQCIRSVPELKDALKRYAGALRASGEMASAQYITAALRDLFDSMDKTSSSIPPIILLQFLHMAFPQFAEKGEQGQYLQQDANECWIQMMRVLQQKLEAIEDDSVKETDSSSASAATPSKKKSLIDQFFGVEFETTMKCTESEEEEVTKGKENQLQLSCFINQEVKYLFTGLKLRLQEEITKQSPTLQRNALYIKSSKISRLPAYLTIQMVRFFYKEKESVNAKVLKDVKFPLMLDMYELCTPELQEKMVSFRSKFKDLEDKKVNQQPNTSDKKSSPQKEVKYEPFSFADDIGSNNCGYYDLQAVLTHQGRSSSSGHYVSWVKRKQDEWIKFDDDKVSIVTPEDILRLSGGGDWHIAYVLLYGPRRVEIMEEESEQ
UniProt Q93009: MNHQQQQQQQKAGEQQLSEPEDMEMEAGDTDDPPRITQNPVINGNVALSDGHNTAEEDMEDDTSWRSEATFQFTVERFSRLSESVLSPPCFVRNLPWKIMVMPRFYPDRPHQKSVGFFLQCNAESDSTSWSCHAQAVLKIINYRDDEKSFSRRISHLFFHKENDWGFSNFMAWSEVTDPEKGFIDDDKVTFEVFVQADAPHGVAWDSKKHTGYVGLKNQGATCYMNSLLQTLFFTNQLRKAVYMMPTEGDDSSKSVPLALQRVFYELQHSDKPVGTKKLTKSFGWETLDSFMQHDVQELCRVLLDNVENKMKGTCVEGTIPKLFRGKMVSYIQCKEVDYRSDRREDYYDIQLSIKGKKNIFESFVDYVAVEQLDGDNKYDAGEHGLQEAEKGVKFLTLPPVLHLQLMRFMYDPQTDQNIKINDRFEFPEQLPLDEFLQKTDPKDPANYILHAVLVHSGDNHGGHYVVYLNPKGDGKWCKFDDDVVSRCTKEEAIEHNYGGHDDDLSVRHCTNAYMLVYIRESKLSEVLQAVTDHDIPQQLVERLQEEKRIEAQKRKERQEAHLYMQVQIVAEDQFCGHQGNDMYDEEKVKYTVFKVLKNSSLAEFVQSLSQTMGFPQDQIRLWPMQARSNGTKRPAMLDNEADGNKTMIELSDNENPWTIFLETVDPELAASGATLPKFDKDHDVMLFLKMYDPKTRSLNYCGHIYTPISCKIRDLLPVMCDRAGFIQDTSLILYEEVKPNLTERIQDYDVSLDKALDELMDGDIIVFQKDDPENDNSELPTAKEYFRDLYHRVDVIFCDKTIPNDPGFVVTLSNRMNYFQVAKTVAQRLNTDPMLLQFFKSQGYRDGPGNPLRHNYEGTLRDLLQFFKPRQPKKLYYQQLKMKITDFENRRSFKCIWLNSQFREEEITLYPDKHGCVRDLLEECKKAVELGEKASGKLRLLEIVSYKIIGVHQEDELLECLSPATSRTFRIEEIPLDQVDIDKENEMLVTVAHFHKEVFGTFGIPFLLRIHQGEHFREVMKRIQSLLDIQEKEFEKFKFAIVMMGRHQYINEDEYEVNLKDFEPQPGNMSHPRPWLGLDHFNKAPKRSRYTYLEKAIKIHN
UniProt P14902: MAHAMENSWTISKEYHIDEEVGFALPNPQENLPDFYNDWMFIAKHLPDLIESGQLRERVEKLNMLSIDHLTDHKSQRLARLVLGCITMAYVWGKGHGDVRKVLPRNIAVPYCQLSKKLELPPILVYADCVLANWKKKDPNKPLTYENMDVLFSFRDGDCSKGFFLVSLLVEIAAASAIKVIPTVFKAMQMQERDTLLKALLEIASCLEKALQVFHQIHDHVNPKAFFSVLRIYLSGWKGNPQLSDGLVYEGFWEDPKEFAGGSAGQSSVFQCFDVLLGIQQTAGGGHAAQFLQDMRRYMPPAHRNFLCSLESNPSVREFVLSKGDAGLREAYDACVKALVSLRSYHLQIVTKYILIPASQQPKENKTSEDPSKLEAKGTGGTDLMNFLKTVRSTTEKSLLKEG
UniProt P19474: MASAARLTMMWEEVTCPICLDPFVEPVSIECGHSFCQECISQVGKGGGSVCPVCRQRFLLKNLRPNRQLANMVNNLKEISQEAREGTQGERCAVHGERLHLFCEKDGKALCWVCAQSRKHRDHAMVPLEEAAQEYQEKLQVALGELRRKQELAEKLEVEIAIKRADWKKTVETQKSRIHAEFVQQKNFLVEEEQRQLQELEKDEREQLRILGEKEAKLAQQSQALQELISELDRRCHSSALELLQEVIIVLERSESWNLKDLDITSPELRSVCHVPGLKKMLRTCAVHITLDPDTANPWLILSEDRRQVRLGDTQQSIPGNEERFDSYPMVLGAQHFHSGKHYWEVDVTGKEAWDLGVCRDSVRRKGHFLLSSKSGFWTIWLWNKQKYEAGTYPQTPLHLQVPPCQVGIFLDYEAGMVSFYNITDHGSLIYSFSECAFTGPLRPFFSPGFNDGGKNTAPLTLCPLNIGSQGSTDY

Experiment [1] has as its target Flag-tagged USP14 expressed in HEK293FT cells (not stated (human or mouse cDNA cloned)) (UniProt P54578). The experiment can be described thus: co-IP; HEK293FT cells co-transfected for 48 h with a Flag-tagged and an HA-tagged protein; lysates (150 mM NaCl, 10 mM HEPES pH 7.4, 1% NP-40) immunoprecipitated with anti-Flag at 4 °C overnight; western blot. For orientation: In western blotting, separated proteins are transferred to a membrane and probed.

For experiment [2], the target named is Flag-tagged USP7 expressed in HEK293FT cells (UniProt Q93009). The description is as above.
Experiment [3] deals with ubiquitin-specific protease-14 (USP14), endogenous in CRC cells (human (endogenous in HCT116 and SW480)) (UniProt P54578). In words: co-IP; endogenous proteins of HCT116 lysates; anti-IDO1, anti-USP14 or anti-TRIM21 antibody with protein G agarose, 4 °C overnight; western blot.
The target of experiment [4] is Indoleamine 2,3 dioxygenase 1 (IDO1), endogenous in HCT116 cells (human (endogenous in HCT116)) (UniProt P14902). The description is as above.

These are yes or no findings as the source states them, for the method shown. In cells and extracts the contact can be indirect. Some entries that bind do so weakly or less than the wild type.

In the case of “HA-IDO1 expressed in HEK293FT cells (from UniProt P14902 1-403)”, the binding entry in experiment [1] and in experiment [2] was “binds” in each case. With “Indoleamine 2,3 dioxygenase 1 (IDO1), endogenous in HCT116 cells (from UniProt P14902 1-403)”, the binding entry in experiment [3] is reported as “binds”. With “tripartite motif containing 21 (TRIM21), endogenous in CRC cells (from UniProt P19474 1-475)”, the binding result in experiment [4] is recorded as “binds”.
